Test results published in patent publication US20170327600.
For part of these data: For at least one entry, the source does not settle the construct or the ends of the probe.

Amino acid sequences for entries named in this document (tags omitted). A change or cut given only in a name is not applied to a line headed by its entry.
UniProt O29494: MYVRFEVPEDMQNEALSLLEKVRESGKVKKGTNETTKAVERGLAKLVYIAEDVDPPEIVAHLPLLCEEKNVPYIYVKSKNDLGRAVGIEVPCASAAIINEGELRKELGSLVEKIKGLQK
UniProt Q9UPY3: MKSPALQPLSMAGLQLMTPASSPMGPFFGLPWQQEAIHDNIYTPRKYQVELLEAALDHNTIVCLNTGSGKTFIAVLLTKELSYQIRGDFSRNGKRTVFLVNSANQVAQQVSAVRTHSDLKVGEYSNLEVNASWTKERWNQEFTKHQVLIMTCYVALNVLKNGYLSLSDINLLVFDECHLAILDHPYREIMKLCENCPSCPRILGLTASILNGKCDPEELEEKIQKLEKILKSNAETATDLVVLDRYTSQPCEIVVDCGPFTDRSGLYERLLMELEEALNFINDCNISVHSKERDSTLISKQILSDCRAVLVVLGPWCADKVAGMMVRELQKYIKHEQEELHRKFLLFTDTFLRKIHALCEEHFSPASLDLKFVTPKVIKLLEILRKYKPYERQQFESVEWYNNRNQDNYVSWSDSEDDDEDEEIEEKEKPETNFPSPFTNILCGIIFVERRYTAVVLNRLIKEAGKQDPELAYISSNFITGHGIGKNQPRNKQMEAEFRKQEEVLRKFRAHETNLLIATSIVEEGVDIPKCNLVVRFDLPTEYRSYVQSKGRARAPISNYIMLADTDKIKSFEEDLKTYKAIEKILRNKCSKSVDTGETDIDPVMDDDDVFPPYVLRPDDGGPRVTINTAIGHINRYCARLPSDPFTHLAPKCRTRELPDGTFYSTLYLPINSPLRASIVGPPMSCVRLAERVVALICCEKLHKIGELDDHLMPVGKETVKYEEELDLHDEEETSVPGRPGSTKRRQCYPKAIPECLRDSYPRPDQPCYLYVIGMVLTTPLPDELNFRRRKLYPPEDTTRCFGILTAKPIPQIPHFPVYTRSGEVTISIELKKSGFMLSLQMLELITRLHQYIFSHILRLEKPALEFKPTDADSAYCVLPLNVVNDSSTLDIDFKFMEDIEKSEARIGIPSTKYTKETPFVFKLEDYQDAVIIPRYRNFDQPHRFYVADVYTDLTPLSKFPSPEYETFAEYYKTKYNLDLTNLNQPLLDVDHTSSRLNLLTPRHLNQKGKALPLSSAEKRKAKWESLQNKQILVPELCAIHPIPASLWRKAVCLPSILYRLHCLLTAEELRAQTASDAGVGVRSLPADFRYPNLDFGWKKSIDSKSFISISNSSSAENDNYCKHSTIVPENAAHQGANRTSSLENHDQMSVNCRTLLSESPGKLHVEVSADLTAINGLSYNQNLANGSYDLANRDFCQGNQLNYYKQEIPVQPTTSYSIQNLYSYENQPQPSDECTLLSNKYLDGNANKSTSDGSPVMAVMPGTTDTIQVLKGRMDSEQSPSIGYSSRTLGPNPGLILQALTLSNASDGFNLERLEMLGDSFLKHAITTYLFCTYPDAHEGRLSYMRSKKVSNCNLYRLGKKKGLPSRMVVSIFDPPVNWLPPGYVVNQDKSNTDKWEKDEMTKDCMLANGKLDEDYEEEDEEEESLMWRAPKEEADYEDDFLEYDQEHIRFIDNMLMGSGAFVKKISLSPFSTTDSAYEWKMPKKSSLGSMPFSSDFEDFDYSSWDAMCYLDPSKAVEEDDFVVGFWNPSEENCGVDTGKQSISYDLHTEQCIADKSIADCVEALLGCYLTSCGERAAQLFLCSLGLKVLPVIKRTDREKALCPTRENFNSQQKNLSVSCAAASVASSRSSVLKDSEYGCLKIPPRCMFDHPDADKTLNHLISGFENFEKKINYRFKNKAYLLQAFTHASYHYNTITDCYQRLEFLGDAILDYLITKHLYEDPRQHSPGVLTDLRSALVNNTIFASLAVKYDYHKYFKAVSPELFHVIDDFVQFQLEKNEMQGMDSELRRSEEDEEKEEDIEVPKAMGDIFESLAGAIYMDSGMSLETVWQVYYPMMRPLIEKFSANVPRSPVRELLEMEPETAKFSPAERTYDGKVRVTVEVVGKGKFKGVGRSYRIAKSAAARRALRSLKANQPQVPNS

Tests used:
[1] = biological target: L7Ae (UniProt O29494); experiment: EMSA; settings: purified recombinant protein
[2] = biological target: L7Ae-Affibody (L7Ae-AFB) (UniProt O29494); experiment: EMSA; settings: purified recombinant protein
[3] = biological target: Dicer (UniProt Q9UPY3); experiment: enzyme reaction in vitro; settings: positive control, ATP, 37 C 16 h; purified recombinant protein; protein details: recombinant Dicer (Genlantis)
[4] = biological target: L7Ae (UniProt O29494); experiment: binding assay; settings: CITED RNA. 2005 11(8):1192-200; sequence of cited RNA not given, box C/D motif from listing; purified recombinant protein

GGACGAGCUGUACACCACACGGACAUGACCACCAAAACUCUGGCGUGAUGAGCUCUUUUACGGUGCUGAUGGGGAGCAGGUCUGACCCGCACGCACGCGGAGGGACCGCAGGCCCUUUCAGGAGGCGUGAUGAGCCAAGCGUGGCGAUAGGUACCAAUAUAAGCGGGCGGCUGCCAUGUAAUCACCAACGGAUAAUUUGCGGUUUGGCGUGAUGAGCUUGAGGUCAACGUCAAGGUUUCGCGGUGC / GGUGUACAGCUCGUCCGCACCGCGAAACCUUGACGUUGACCUCAAGCUCUGACCAAACCGCAAAUUAUCCGUUGGUGAUUACAUGGCAGCCGCCCGCUUAUAUUGGUACCUAUCGCCACGCUUGGCUCUGACCUCCUGAAAGGGCCUGCGGUCCCUCCGCGUGCGUGCGGGUCAGACCUGCUCCCCAUCAGCACCGUAAAAGAGCUCUGACCAGAGUUUUGGUGGUCAUGUCCGUGU [LS-70]
binding result ([1]; triangle also by HS-AFM): binds | binding result [2]: binds

GGACGAGCUGUACACCACACGGACAUGACCCAACCAAUUACACCAAAACUCUGGCGUGAUGAGCUCUUUUACGGUGCUGAUGGGGAGCAGGUGUGCCGAUGCUGCGUAUCCGGUCUGACCCGCACGCACGCGGAGGGACCGCAGGCCCUUUCAGGAGGCGUGAUGAGCCAAGCGUGGCGAUAGGUACCAAUCCAAGCCUAAUGGUUGCGGUCGAUAAGCGGGCGGCUGCCAUGUAAUCACCAACGGAUAAUUUGCGGUUUGGCGUGAUGAGCUUGAGGUCAACGAGGAAGUUCGCUCAAGGUUUCGCGGUGC / GGUGUACAGCUCGUCCGCACCGCGAAACCUUGAGCGAACUUCCUCGUUGACCUCAAGCUCUGACCAAACCGCAAAUUAUCCGUUGGUGAUUACAUGGCAGCCGCCCGCUUAUCGACCGCAACCAUUAGGCUUGGAUUGGUACCUAUCGCCACGCUUGGCUCUGACCUCCUGAAAGGGCCUGCGGUCCCUCCGCGUGCGUGCGGGUCAGACCGGAUACGCAGCAUCGGCACACCUGCUCCCCAUCAGCACCGUAAAAGAGCUCUGACCAGAGUUUUGGUGUAAUUGGUUGGGUCAUGUCCGUGU [LS-92]
binding result ([1]; triangle by HS-AFM somewhat deformed): binds | binding result [2]: binds

GGCAUCAAGGUGAACUUCAAGAUCCAGCAUAGGGAUCUUGAAGUUCACCUUGAUGCCAG [sh-GFP]
activity on this sequence [3]: active

GGCGUGAUGAGC / GCUCUGACC [Box C/D]
Kd [4]: 0.9 nM
